{
  "source": "patent US20030129236A1",
  "about": "“Multiple pulse extended release formulations of clindamycin” (priority 2001, published 2003)",
  "data": [
    {"smiles": "CCC[C@@H]1C[C@@H](C(=O)N[C@@H]([C@H]2O[C@H](SC)[C@H](O)[C@@H](O)[C@H]2O)[C@H](C)Cl)N(C)C1", "note": "[clindamycin]", "values": [
      {"measurement": "Adverse side effects of release", "setting": "human, in vivo", "result": "No adverse side effects"},
      {"measurement": "Level of colonic absorption", "setting": "release in ascending colon", "result": "considerably higher than expected"}
    ]}
  ]
}
